The filed quantity is “Percent Effect” (%).
How 0% and 100% were set is not recorded. Most values in the screen are low, and negative values occur.
Compounds were drawn at random from those tested, without regard to their results.

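Whole-cell assay for inhibitors of Mycobacterium tuberculosis growth, labelled Cornell in the record; the read-out is not stated. The concentration is filed as 10 mM, unlikely as a test dose, so the dose is not known. The record gives no direction; compounds strong in two other growth screens of this library score well above the rest, so higher reads as stronger inhibition. Size under these conditions: about 53,000 compounds, about 900 of them at 50% or above in at least one test.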

{"structure": "O=c1[nH]nc(CNc2cncc(Br)c2)[nH]1", "percent effect": -6.755}
{"structure": "Cc1[nH]/c(=N/C(=O)Cn2nc(N3CCOCC3)ccc2=O)sc1C", "percent effect": -3.782}
{"structure": "CSCC(=O)N(Cc1ccccn1)Cc1ccccc1C", "percent effect": 11.34}
{"structure": "Cn1nc2c(c1NC(=O)c1ccc(C3CCCN3C3CCC3)s1)CCC2", "stereo": "centres unmarked", "percent effect": 30.5}
{"structure": "CC(C)Cc1cc(C(=O)NCC2CCN(c3ccccc3F)C2)on1", "stereo": "centres unmarked", "percent effect": 8.723}
{"structure": "O=C(O)C(F)(F)F.O=C(c1cscn1)N1CCc2ncnc(-c3cccnc3)c2CC1", "percent effect": -19.2}
{"structure": "CCCc1cncnc1N1CCC(NCc2ccncc2)CC1", "percent effect": -49.68}
{"structure": "O=S(=O)(NCCC(O)c1cccs1)c1c(F)cccc1F", "stereo": "centres unmarked", "percent effect": 7.915}
{"structure": "O=C(NCc1nnc2n1CCCCC2)N(CC1CCOC1)C1CC1", "stereo": "centres unmarked", "percent effect": -32.8}
{"structure": "Cc1ccc([C@@H]2CN(C(=O)c3ccccc3C)C[C@H]2N(C)C)cc1", "percent effect": 31.75}
{"structure": "O=C(c1cc(-c2cccs2)nc2ccccc12)N1CCN(CCO)CC1", "percent effect": 17.99}
{"structure": "Nc1cccc(-c2cccc3ccnn23)n1", "percent effect": 19.61}
{"structure": "CS(=O)(=O)N1CCC2(CC1)NCCn1c(-c3ccccc3)cnc12.O=C(O)C(F)(F)F.O=C(O)C(F)(F)F", "percent effect": 12.56}
{"structure": "Cc1nc(CC(=O)N2CCC(Nc3cccnn3)CC2)cs1", "percent effect": 9.796}
{"structure": "CN(CC(=O)N1CCc2[nH]c3ccc(F)cc3c2C1)CC1OCCO1", "percent effect": -14.76}
{"structure": "O=C(c1ccc(S(=O)(=O)NCc2ccon2)cc1)N1CCOCC1", "percent effect": -29.92}
{"structure": "CC1CCc2nc(O)c(C(=O)NCc3ccccn3)cc2C1", "stereo": "centres unmarked", "percent effect": -31.93}
{"structure": "CCC(=O)N1CCC2(COCc3cnc(N4CCOCC4)nc32)C1", "stereo": "centres unmarked", "percent effect": 0.8799}
{"structure": "Cc1ccc(N2CCCN(C(=O)CCC3CCCO3)CC2)nn1", "stereo": "centres unmarked", "percent effect": 7.396}
{"structure": "CCCn1[nH]c(CNc2ccccc2)nc1=O", "percent effect": -7.532}
{"structure": "CCn1ccnc1CN1CCCN(C(=O)c2cccn2C)CC1", "percent effect": -6.908}
{"structure": "CC(=O)NCC(=O)N1CCc2c(CN(C)C)nn(C(C)C)c2C1", "percent effect": 22.59}
{"structure": "O=C(CCNc1ncccn1)NCc1cccc(OC(F)F)c1", "percent effect": 10.3}
{"structure": "CN1CCN(S(=O)(=O)c2ccc(C(=O)N3CC[C@@H](O)C3)cc2)CC1=O", "percent effect": 40.67}
{"structure": "CC(CCNC(=O)N1CCC1)N(C)C(=O)OC(C)(C)C", "stereo": "centres unmarked", "percent effect": 17.72}
{"structure": "CC(C)c1ncncc1C(=O)N1CCCN(Cc2cccs2)CC1", "percent effect": 8.19}
{"structure": "Cc1cccnc1CN1CC[C@@](C)(O)[C@H](Oc2ccccc2)C1", "percent effect": -1.167}
{"structure": "CC1CCN(c2nc(O)cc(C3CC(=O)N(C4CCCCC4)C3)n2)CC1", "stereo": "centres unmarked", "percent effect": 27.72}

The last 2 entries again:

* Cc1cccnc1CN1CC[C@@](C)(O)[C@H](Oc2ccccc2)C1 | -1.167%
* CC1CCN(c2nc(O)cc(C3CC(=O)N(C4CCCCC4)C3)n2)CC1 (centres unmarked) | 27.72%

Measurements from “University of Dundee, Small-Polar-MMV Screening Library” (2021), ChEMBL document CHEMBL3988442.